Measurements reported in doi:10.1101/2023.10.24.563888.

Protein sequences, listed by entry. Tags and fused reporters are not part of them.
UniProt P02538: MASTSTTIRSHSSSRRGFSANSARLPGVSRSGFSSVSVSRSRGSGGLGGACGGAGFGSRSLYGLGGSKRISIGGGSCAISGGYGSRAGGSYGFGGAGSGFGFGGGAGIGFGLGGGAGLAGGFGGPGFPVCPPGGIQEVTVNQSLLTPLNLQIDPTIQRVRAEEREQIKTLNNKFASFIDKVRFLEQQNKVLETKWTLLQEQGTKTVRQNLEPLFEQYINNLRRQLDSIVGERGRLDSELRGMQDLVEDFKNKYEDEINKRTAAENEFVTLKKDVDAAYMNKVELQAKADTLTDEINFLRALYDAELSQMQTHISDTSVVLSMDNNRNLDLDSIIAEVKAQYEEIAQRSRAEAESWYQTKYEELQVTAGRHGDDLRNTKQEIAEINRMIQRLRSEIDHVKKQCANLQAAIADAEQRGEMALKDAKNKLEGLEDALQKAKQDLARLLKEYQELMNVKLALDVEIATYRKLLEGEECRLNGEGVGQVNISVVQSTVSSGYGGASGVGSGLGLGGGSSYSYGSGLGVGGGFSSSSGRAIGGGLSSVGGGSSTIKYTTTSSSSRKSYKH
UniProt Q9UNE7: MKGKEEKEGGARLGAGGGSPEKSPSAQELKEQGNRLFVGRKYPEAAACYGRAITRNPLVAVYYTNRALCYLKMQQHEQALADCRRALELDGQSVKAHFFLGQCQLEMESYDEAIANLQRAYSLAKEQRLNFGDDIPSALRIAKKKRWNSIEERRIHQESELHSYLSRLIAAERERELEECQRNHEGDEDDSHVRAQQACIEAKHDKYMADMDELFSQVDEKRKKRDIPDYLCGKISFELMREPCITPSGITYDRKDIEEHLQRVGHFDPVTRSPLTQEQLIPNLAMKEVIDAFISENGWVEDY
UniProt Q8IUD2: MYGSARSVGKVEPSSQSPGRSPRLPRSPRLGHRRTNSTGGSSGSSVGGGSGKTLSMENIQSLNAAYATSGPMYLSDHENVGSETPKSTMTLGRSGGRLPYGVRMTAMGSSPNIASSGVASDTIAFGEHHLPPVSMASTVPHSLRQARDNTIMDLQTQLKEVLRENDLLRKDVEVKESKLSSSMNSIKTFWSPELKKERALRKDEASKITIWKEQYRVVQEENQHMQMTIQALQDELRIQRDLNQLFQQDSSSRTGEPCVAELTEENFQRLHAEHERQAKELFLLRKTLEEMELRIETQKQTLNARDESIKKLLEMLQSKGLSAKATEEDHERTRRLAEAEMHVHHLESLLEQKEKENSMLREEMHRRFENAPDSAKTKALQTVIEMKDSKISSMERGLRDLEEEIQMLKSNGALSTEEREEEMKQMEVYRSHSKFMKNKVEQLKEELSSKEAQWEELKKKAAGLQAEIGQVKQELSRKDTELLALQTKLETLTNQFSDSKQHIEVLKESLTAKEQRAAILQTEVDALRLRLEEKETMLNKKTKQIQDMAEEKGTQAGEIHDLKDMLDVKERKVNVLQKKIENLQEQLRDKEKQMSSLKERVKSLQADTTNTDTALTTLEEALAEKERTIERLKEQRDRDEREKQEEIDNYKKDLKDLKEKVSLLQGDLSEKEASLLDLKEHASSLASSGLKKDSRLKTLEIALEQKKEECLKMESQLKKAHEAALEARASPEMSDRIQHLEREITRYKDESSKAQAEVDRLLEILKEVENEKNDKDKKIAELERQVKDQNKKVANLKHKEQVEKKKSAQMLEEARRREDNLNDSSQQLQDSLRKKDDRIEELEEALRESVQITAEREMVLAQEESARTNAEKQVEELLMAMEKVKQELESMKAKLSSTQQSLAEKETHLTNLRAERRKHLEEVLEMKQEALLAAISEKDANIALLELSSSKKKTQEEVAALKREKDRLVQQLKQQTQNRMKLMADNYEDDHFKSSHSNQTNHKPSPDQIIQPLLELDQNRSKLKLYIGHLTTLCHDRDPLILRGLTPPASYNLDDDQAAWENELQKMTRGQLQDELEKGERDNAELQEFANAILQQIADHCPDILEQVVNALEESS
UniProt P08779: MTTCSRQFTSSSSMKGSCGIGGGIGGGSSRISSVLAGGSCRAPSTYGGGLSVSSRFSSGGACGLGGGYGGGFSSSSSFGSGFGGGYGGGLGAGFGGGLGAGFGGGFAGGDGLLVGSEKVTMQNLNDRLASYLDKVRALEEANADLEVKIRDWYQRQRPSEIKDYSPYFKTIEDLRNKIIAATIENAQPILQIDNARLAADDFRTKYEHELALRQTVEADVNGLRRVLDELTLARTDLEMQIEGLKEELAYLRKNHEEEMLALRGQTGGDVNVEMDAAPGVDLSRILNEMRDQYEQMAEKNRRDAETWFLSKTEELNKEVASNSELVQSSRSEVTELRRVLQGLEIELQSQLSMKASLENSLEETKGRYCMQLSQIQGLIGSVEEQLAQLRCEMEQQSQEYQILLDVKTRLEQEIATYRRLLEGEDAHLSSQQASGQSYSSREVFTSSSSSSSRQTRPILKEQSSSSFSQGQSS

Target: keratin 6a (K6a), endogenous in hTCEpi cells (human (endogenous in hTCEpi)) (UniProt P02538)
Assay: affinity purification with mass spectrometry

Molecule	binding
carboxyl terminus of constitutive heat shock cognate 70 (HSC70)-interacting protein (CHIP) (from UniProt Q9UNE7 1-303) (enzyme)	binds
ELKS/Rab6-interacting/CAST family member 1 (ELKS), endogenous in hTCEpi cells (from UniProt Q8IUD2 1-1116)	binds
K16 (from UniProt P08779 1-473)	binds
tripartite motif-containing protein 29 (TRIM29) (enzyme, UniProt Q14134 1-588) MEAADASRSNGSSPEARDARSPSGPSGSLENGTKADGKDAKTTNGHGGEAAEGKSLGSALKPGEGRSALFAGNEWRRPIIQFVESGDDKNSNYFSMDSMEGKRSPYAGLQLGAAKKPPVTFAEKGELRKSIFSESRKPTVSIMEPGETRRNSYPRADTGLFSRSKSGSEEVLCDSCIGNKQKAVKSCLVCQASFCELHLKPHLEGAAFRDHQLLEPIRDFEARKCPVHGKTMELFCQTDQTCICYLCMFQEHKNHSTVTVEEAKAEKETELSLQKEQLQLKIIEIEDEAEKWQKEKDRIKSFTTNEKAILEQNFRDLVRDLEKQKEEVRAALEQREQDAVDQVKVIMDALDERAKVLHEDKQTREQLHSISDSVLFLQEFGALMSNYSLPPPLPTYHVLLEGEGLGQSLGNFKDDLLNVCMRHVEKMCKADLSRNFIERNHMENGGDHRYVNNYTNSFGGEWSAPDTMKRYSMYLTPKGGVRTSYQPSSPGRFTKETTQKNFNNLYGTKGNYTSRVWEYSSSIQNSDNDLPVVQGSSSFSLKGYPSLMRSQSPKAQPQTWKSGKQTMLSHYRPFYVNKGNGIGSNEAP	binds
RelA-associated inhibitor (protein, UniProt Q8WUF5 1-828) MDSEAFQSARDFLDMNFQSLAMKHMDLKQMELDTAAAKVDELTKQLESLWSDSPAPPGPQAGPPSRPPRYSSSSIPEPFGSRGSPRKAATDGADTPFGRSESAPTLHPYSPLSPKGRPSSPRTPLYLQPDAYGSLDRATSPRPRAFDGAGSSLGRAPSPRPGPGPLRQQGPPTPFDFLGRAGSPRGSPLAEGPQAFFPERGPSPRPPATAYDAPASAFGSSLLGSGGSAFAPPLRAQDDLTLRRRPPKAWNESDLDVAYEKKPSQTASYERLDVFARPASPSLQLLPWRESSLDGLGGTGKDNLTSATLPRNYKVSPLASDRRSDAGSYRRSLGSAGPSGTLPRSWQPVSRIPMPPSSPQPRGAPRQRPIPLSMIFKLQNAFWEHGASRAMLPGSPLFTRAPPPKLQPQPQPQPQPQSQPQPQLPPQPQTQPQTPTPAPQHPQQTWPPVNEGPPKPPTELEPEPEIEGLLTPVLEAGDVDEGPVARPLSPTRLQPALPPEAQSVPELEEVARVLAEIPRPLKRRGSMEQAPAVALPPTHKKQYQQIISRLFHRHGGPGPGGPEPELSPITEGSEARAGPPAPAPPAPIPPPAPSQSSPPEQPQSMEMRSVLRKAGSPRKARRARLNPLVLLLDAALTGELEVVQQAVKEMNDPSQPNEEGITALHNAICGANYSIVDFLITAGANVNSPDSHGWTPLHCAASCNDTVICMALVQHGAAIFATTLSDGATAFEKCDPYREGYADCATYLADVEQSMGLMNSGAVYALWDYSAEFGDELSFREGESVTVLRRDGPEETDWWWAALHGQEGYVPRNYFGLFPRVKPQRSKV	binds

Results are given in words; binding and its absence hold for the method and conditions named. Binding seen in cells or lysates may run through a third protein. Here binding means that the protein was enriched with, or labelled near, the bait; the list need not be complete.
